Experimental data taken from publication PMC10786907.

T1: Flag-FBXO31 (UniProt Q5XUX0)
T1 sequence: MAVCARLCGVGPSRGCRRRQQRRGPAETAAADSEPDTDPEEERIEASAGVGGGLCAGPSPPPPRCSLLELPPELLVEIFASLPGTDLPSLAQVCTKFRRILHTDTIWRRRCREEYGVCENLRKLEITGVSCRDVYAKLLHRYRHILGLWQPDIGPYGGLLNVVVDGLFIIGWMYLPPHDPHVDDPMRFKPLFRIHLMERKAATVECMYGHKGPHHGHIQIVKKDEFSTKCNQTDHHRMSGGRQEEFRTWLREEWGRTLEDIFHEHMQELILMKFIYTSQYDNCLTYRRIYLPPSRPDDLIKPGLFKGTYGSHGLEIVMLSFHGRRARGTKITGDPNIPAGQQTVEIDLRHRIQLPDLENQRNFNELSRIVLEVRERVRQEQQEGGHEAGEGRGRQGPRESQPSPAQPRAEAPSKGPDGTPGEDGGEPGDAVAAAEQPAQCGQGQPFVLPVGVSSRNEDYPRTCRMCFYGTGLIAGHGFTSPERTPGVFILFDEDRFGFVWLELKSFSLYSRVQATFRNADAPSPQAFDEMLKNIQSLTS


What was measured:
Flag-FBXO31 = target: T1, Flag-FBXO31; assay: co-IP; transfected cells (293T, Panc-1, PaTu-8988, SW1990) treated with 10 μM MG132 for 6 h; NP40 lysate; HA or Flag magnetic beads; washed 3 times with TBST; western blotting
FBXO31 ΔF-box = FBXO31 ΔF-box (UniProt Q5XUX0); assay: as above

| binding (Flag-FBXO31) | binding (FBXO31 ΔF-box) | Molecule |
| --- | --- | --- |
| no binding | – | SIRT2 Δ-sirtuin (from UniProt Q8IXJ6) |
| – | binds | SIRT2 (protein, UniProt Q8IXJ6 1-389) MAEPDPSHPLETQAGKVQEAQDSDSDSEGGAAGGEADMDFLRNLFSQTLSLGSQKERLLDELTLEGVARYMQSERCRRVICLVGAGISTSAGIPDFRSPSTGLYDNLEKYHLPYPEAIFEISYFKKHPEPFFALAKELYPGQFKPTICHYFMRLLKDKGLLLRCYTQNIDTLERIAGLEQEDLVEAHGTFYTSHCVSASCRHEYPLSWMKEKIFSEVTPKCEDCQSLVKPDIVFFGESLPARFFSCMQSDFLKVDLLLVMGTSLQVQPFASLISKAPLSTPRLLINKEKAGQSDPFLGMIMGLGGGMDFDSKKAYRDVAWLGECDQGCLALAELLGWKKELEDLVRREHASIDAQSGAGVPNPSTSASPKKSPPPAKDEARTTEREKPQ |

These are yes or no findings as the source states them, for the method shown. In cells and extracts the contact can be indirect. For some assays here: A result given as binding can be weak or reduced; the word gives no strength. For some assays here: Where a sequence is shown, tags or fusion partners need not be part of it.
